PubChem BioAssay AID1259424 | University of Nebraska Medical Center, 2018

Assay: 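Rank knockdowns across the genome by resemblance to the KSR1 depletion profile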 (primary screen)
System: human HCT116 colon cancer cells
Knock-down reagent: siRNA pool against human genes, 50 nM
Read-out: 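Six signature mRNAs by branched-DNA multiplex assay, scaled to two housekeeping genes and non-targeting median, log2; matched to mean KSR1 knockdown profile by Pearson correlation and euclidean distance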
Scale: mean correlation with KSR1 profile: higher = expression change more like KSR1 knockdown; mean distance from KSR1 profile: higher = expression change less like KSR1 knockdown
Here is one part, drawn at random, of about 14,000 reagents. 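Higher correlation or smaller distance means closer resemblance to KSR1 loss; control wells, including KSR1 knockdowns, recur on many plates.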 Some reagents were tested in more than one well and are listed for each. Further read-outs or replicates are left out here. Not given: the time to read-out.

What is on record for SIAH1 (siah E3 ubiquitin protein ligase 1)?
mean correlation with KSR1 profile: 0.332; mean distance from KSR1 profile: 1.52

For ZNF432 (zinc finger protein 432), how do the results read?
mean correlation with KSR1 profile: -0.0908; mean distance from KSR1 profile: 1.66

How did the screen score YIF1A?
mean correlation with KSR1 profile: 0.0547; mean distance from KSR1 profile: 2.03

With GRK7 (G protein-coupled receptor kinase 7), how do the results read?
mean correlation with KSR1 profile: 0.867; mean distance from KSR1 profile: 0.867

Which result is listed for GRK7 (G protein-coupled receptor kinase 7)?
mean correlation with KSR1 profile: 0.2; mean distance from KSR1 profile: 1.78

What is on record for CCR9 (C-C motif chemokine receptor 9)?
mean correlation with KSR1 profile: 0.526; mean distance from KSR1 profile: 1.58

With KRT12 (keratin 12), what was measured?
mean correlation with KSR1 profile: 0.297; mean distance from KSR1 profile: 1.51

For TAF1 (TATA-box binding protein associated factor 1), how do the results read?
mean correlation with KSR1 profile: 0.372; mean distance from KSR1 profile: 1.6

For CALY (calcyon neuron specific vesicular protein), how do the results read?
mean correlation with KSR1 profile: -0.606; mean distance from KSR1 profile: 1.89

How did the screen score CCDC22 (CCC complex scaffolding subunit CCDC22)?
mean correlation with KSR1 profile: -0.015; mean distance from KSR1 profile: 2.99

For KLF15 (KLF transcription factor 15), how do the results read?
mean correlation with KSR1 profile: 0.59; mean distance from KSR1 profile: 1.38

How did the screen score RASA1 (RAS p21 protein activator 1)?
mean correlation with KSR1 profile: -0.499; mean distance from KSR1 profile: 1.68

For ATAD2 (ATPase family AAA domain containing 2), how do the results read?
mean correlation with KSR1 profile: 0.00186; mean distance from KSR1 profile: 2.48

What did the screen give for IFIT1 (interferon induced protein with tetratricopeptide repeats 1)?
mean correlation with KSR1 profile: -0.311; mean distance from KSR1 profile: 2.57

What did the screen give for DEFB103B (defensin beta 103B)?
mean correlation with KSR1 profile: -0.0334; mean distance from KSR1 profile: 1.49

What did the screen give for RAB40C (RAB40C, member RAS oncogene family)?
mean correlation with KSR1 profile: 0.445; mean distance from KSR1 profile: 1.94

For HLA-DOB (major histocompatibility complex, class II, DO beta), how do the results read?
mean correlation with KSR1 profile: -0.425; mean distance from KSR1 profile: 2.7

For PLAGL1 (PLAG1 like zinc finger 1), how do the results read?
mean correlation with KSR1 profile: 0.617; mean distance from KSR1 profile: 1.23

Which result is listed for TCP1 (t-complex 1)?
mean correlation with KSR1 profile: 0.276; mean distance from KSR1 profile: 3.74

What did the screen give for ABCC1?
mean correlation with KSR1 profile: -0.288; mean distance from KSR1 profile: 1.8

For ERP44 (endoplasmic reticulum protein 44), how do the results read?
mean correlation with KSR1 profile: -0.409; mean distance from KSR1 profile: 2.11

How did the screen score HERC4 (HECT and RLD domain containing E3 ubiquitin protein ligase 4)?
mean correlation with KSR1 profile: -0.807; mean distance from KSR1 profile: 2.58

For TNFRSF21 (TNF receptor superfamily member 21), what does the deposit list?
mean correlation with KSR1 profile: -0.696; mean distance from KSR1 profile: 2.45

What did the screen give for RNF126 (ring finger protein 126)?
mean correlation with KSR1 profile: 0.252; mean distance from KSR1 profile: 3.49

How did the screen score LINC00158 (long independently transcribed non-coding RNA 158)?
mean correlation with KSR1 profile: -0.331; mean distance from KSR1 profile: 1.58

With ADAMTS10 (ADAM metallopeptidase with thrombospondin type 1 motif 10), how do the results read?
mean correlation with KSR1 profile: -0.826; mean distance from KSR1 profile: 2.22

What did the screen give for SYCP1 (synaptonemal complex protein 1)?
mean correlation with KSR1 profile: 0.728; mean distance from KSR1 profile: 0.715

How did the screen score GOLT1B (golgi transport 1B)?
mean correlation with KSR1 profile: -0.321; mean distance from KSR1 profile: 1.36
